{"source": "PubChem BioAssay AID1508597 – Cure First | 2020", "aim": "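Genes whose silencing sensitises or protects ovarian cancer cells against rucaparib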 (primary screen)", "cells": "human ovarian carcinoma lines grown from tumours: OCI-P5x (papillary serous) and OCI-C5x (clear cell)", "knock-down reagent": "siRNA pool against human genes, 1.25 pmol siRNA per well", "timing": "72 h or 96 h, depending on the cell culture", "treatment": "rucaparib 20 µM (about IC30) or vehicle, present until read-out", "rucaparib or vehicle": "Vehicle", "cell line": "OCI-C5x (clear cell)", "read-out": "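ATP luminescence measured at 72 or 96 h according to the culture, then normalised and expressed as percent viability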", "reading the numbers": "viability, normalised: higher = more viable cells remaining", "call rule": "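a well counts as a hit if its normalised viability is under 80 percent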", "calls": "active = viability under 80%; inactive = viability 80% or more", "note": "This is a random part of the about 2,100 reagents, in one setting of the screen. 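Calls flag viability under 80% in either arm, not effects specific to rucaparib; the reference for percent is not stated.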 A reagent listed more than once was tested more than once; the source does not tell the runs apart. The record does not give: the 100% reference."}
{"target gene":"BMP7 (bone morphogenetic protein 7)","technical replicate":"1","viability, normalised (%)":46.7,"outcome":"active"}
{"target gene":"BMP7 (bone morphogenetic protein 7)","technical replicate":"2","viability, normalised (%)":35.2,"outcome":"active"}
{"target gene":"BMP7 (bone morphogenetic protein 7)","technical replicate":"3","viability, normalised (%)":48.9,"outcome":"active"}
{"target gene":"POLK (DNA polymerase kappa)","technical replicate":"1","viability, normalised (%)":41.1,"outcome":"active"}
{"target gene":"POLK (DNA polymerase kappa)","technical replicate":"1","viability, normalised (%)":62.3,"outcome":"active"}
{"target gene":"POLK (DNA polymerase kappa)","technical replicate":"2","viability, normalised (%)":55.7,"outcome":"active"}
{"target gene":"POLK (DNA polymerase kappa)","technical replicate":"2","viability, normalised (%)":50.9,"outcome":"active"}
{"target gene":"POLK (DNA polymerase kappa)","technical replicate":"3","viability, normalised (%)":43.7,"outcome":"active"}
{"target gene":"POLK (DNA polymerase kappa)","technical replicate":"3","viability, normalised (%)":45.5,"outcome":"active"}
{"target gene":"ZGPAT (zinc finger CCCH-type and G-patch domain containing)","technical replicate":"1","viability, normalised (%)":77.6,"outcome":"active"}
{"target gene":"ZGPAT (zinc finger CCCH-type and G-patch domain containing)","technical replicate":"2","viability, normalised (%)":68.3,"outcome":"active"}
{"target gene":"ZGPAT (zinc finger CCCH-type and G-patch domain containing)","technical replicate":"3","viability, normalised (%)":65.4,"outcome":"active"}
{"target gene":"AGK (acylglycerol kinase)","technical replicate":"1","viability, normalised (%)":55.1,"outcome":"active"}
{"target gene":"AGK (acylglycerol kinase)","technical replicate":"2","viability, normalised (%)":57.7,"outcome":"active"}
{"target gene":"AGK (acylglycerol kinase)","technical replicate":"3","viability, normalised (%)":66.9,"outcome":"active"}
{"target gene":"PGK1 (phosphoglycerate kinase 1)","technical replicate":"1","viability, normalised (%)":51.3,"outcome":"active"}
{"target gene":"PGK1 (phosphoglycerate kinase 1)","technical replicate":"2","viability, normalised (%)":56.3,"outcome":"active"}
{"target gene":"PGK1 (phosphoglycerate kinase 1)","technical replicate":"3","viability, normalised (%)":49.1,"outcome":"active"}
{"target gene":"MAPK10 (mitogen-activated protein kinase 10)","technical replicate":"1","viability, normalised (%)":63.6,"outcome":"active"}
{"target gene":"MAPK10 (mitogen-activated protein kinase 10)","technical replicate":"2","viability, normalised (%)":75.5,"outcome":"active"}
{"target gene":"MAPK10 (mitogen-activated protein kinase 10)","technical replicate":"3","viability, normalised (%)":82.9,"outcome":"inactive"}

Sorted by “viability, normalised (%)” (ascending): some entries from above.
{"target gene":"AGK (acylglycerol kinase)","technical replicate":"1","viability, normalised (%)":55.1,"outcome":"active"}
{"target gene":"AGK (acylglycerol kinase)","technical replicate":"2","viability, normalised (%)":57.7,"outcome":"active"}
